This data set relates to Ded1 + SRP21. Kind of data set: EMSA (agarose). Conditions: SRP21 has little effect on Ded1 binding, higher-MW complexes retained in wells; EMSA: 20 mM Tris-base pH 8.8, 70 mM KOAc, 2 mM MgCl2, 10 ug/uL BSA, 1 mM DTT, with or without 5 mM AMP-PNP or ATP, 0.15 uM RNA, 15 min at 30 C; 1% agarose, 1x TBE, 4 C; recombinant protein; probe letters rebuilt from the primers and the genome; part of a longer molecule. Background: A gel shift assay detects complexes by their altered migration in electrophoresis.

The values that follow come from PMC11206880, “The RNA Helicase Ded1 from Yeast Is Associated with the Signal Recognition Particle and Is Regulated by SRP21” (Molecules, 2024).

The exact form of at least one protein or probe is not confirmed.

On to “UGUAAUGGCUUUCUGGUGGGAUGGGAUACGUUGAGAAUUCUGGCCGAGGAACAAAUCCUUCCUCGCGGCUAGACACGGAUUGCACGCCCUUUGGGCAAGGGAUAGUUCUCUAUUCCGCACCGUGCCCUGUUGUGGCAACCGUCUUUCCUCCGUCGUAAAUUUGUCCUGGGCAGAGCUGUCUGCCCGGAGGCGGGAGAGUCCGUUCUGAAGUGUCCCGGCUAUAAUAAAUCGAUCUUUGCGGGCAGCCCGUUGGCAGGAGGCGUGAGGAAUCCGUCUCUCUGUCUGGUGCGGCAAGGUAGUUCUGGGUCCUUAGGGGCUCCACCUUCACCGCUGUUAGGGGAGUUUUAUCCAGCGUCAGCAAAGGUGACCCGUGAUGGAGGCGGCCGGGAUAGCACAUAUCAGUCGGAUAAUUGUGCAAGUUGAUCGCUUCGGCGGUUUAAUUUGGCGGUGCCAUCAGGAUUUACUCGCACAUUGUGGCCGUUCCCUCGGGGAUGGAGUGUGUCCUGAACCAUAUUUUU [SCR1 RNA (T7 transcript, 522 nt)]”, for which the binding result is “binds”.
